In PMC6575207:
These are yes or no findings as the source states them, for the method shown. Binding seen in cells or lysates may run through a third protein. Some entries that bind do so weakly or less than the wild type. Tags and fused reporters may be left off the sequences shown.

Target: T1, TAP-tagged IRF9, Q00978
T1 chain: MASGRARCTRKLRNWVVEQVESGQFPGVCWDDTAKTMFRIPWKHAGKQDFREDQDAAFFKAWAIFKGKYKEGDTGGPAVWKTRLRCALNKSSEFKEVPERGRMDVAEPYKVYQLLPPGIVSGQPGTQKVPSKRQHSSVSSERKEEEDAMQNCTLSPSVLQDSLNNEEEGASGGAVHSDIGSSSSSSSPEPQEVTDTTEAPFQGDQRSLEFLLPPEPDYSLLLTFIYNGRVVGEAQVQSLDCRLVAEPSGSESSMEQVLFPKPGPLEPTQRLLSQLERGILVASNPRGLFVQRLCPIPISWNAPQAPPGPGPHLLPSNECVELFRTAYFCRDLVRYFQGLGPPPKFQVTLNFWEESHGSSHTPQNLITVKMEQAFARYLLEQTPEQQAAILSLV
Experiment: co-IP; HEK-293T cotransfected with TAP-tagged IRF9 and HA-tagged STAT1 or STAT2 or FLAG-tagged HDAC1 or HDAC4, 24 h; lysates precipitated via the streptavidin-epitope; immunoblot (Fig. 5D)
Conditions: remark: other sources report otherwise

binding: binds
B1: HA-tagged STAT1, P42224 1-750 (protein)
chain: MSQWYELQQLDSKFLEQVHQLYDDSFPMEIRQYLAQWLEKQDWEHAANDVSFATIRFHDLLSQLDDQYSRFSLENNFLLQHNIRKSKRNLQDNFQEDPIQMSMIIYSCLKEERKILENAQRFNQAQSGNIQSTVMLDKQKELDSKVRNVKDKVMCIEHEIKSLEDLQDEYDFKCKTLQNREHETNGVAKSDQKQEQLLLKKMYLMLDNKRKEVVHKIIELLNVTELTQNALINDELVEWKRRQQSACIGGPPNACLDQLQNWFTIVAESLQQVRQQLKKLEELEQKYTYEHDPITKNKQVLWDRTFSLFQQLIQSSFVVERQPCMPTHPQRPLVLKTGVQFTVKLRLLVKLQELNYNLKVKVLFDKDVNERNTVKGFRKFNILGTHTKVMNMEESTNGSLAAEFRHLQLKEQKNAGTRTNEGPLIVTEELHSLSFETQLCQPGLVIDLETTSLPVVVISNVSQLPSGWASILWYNMLVAEPRNLSFFLTPPCARWAQLSEVLSWQFSSVTKRGLNVDQLNMLGEKLLGPNASPDGLIPWTRFCKENINDKNFPFWLWIESILELIKKHLLPLWNDGCIMGFISKERERALLKDQQPGTFLLRFSESSREGAITFTWVERSQNGGEPDFHAVEPYTKKELSAVTFPDIIRNYKVMAAENIPENPLKYLYPNIDKDHAFGKYYSRPKEAPEPMELDGPKGTGYIKTELISVSEVHPSRLQTTDNLLPMSPEEFDEVSRIVGSVEFDSMMNTV
